Consider 35 targets from the supplement of paper PMC10849652.

Sequences of proteins named here, by UniProt entry; tags and fusion partners are left off. A change or cut given only in a name is not applied to a line headed by its entry.
UniProt Q8N300: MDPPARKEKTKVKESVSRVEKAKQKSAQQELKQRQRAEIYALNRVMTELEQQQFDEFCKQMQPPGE
UniProt P21675, whole entry, looked up: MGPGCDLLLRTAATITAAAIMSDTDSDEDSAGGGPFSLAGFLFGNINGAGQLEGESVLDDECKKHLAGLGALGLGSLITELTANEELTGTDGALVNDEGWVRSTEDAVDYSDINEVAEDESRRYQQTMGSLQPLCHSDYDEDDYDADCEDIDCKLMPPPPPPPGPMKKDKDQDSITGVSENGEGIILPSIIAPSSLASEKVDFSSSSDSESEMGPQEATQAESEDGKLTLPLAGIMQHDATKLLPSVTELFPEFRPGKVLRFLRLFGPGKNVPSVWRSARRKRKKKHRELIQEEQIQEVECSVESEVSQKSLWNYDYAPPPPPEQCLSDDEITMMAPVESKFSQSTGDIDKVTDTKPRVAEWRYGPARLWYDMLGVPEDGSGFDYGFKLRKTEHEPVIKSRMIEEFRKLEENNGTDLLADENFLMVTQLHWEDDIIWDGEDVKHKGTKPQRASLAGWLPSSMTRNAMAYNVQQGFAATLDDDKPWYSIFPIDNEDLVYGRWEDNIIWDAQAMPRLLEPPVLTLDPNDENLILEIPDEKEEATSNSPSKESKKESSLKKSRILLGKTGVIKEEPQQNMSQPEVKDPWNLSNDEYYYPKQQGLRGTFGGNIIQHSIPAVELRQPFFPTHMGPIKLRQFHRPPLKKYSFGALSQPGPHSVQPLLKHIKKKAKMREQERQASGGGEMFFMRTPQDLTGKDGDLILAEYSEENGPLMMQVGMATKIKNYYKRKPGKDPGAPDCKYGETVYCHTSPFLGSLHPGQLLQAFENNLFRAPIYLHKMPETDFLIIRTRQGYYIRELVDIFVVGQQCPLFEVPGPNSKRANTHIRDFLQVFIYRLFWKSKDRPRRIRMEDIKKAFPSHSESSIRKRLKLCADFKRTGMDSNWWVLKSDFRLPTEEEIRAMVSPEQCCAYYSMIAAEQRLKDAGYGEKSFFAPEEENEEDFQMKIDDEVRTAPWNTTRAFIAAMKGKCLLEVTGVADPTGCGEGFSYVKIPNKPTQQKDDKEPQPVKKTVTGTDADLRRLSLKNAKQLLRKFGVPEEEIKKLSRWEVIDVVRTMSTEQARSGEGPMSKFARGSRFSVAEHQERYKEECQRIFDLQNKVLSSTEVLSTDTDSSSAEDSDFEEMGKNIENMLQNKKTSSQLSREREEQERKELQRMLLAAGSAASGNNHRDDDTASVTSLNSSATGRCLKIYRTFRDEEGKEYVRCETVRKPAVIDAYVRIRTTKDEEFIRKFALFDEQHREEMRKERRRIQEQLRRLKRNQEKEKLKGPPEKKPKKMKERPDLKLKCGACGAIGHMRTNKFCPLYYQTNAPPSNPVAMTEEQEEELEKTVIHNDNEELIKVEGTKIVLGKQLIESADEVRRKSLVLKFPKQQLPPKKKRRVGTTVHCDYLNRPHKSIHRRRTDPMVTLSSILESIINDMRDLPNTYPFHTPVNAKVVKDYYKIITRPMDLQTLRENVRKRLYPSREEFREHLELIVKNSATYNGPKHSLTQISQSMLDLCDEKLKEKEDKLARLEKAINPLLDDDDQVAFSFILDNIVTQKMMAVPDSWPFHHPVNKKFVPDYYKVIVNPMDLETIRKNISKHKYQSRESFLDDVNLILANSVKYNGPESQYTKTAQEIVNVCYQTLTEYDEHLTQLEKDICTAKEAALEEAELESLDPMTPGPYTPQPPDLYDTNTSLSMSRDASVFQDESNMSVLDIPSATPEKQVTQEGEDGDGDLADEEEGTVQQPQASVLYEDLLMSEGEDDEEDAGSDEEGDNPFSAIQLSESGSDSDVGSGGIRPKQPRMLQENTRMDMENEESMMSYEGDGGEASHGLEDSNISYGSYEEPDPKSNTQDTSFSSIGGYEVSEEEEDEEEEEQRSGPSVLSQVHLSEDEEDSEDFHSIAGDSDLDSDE
UniProt O94768: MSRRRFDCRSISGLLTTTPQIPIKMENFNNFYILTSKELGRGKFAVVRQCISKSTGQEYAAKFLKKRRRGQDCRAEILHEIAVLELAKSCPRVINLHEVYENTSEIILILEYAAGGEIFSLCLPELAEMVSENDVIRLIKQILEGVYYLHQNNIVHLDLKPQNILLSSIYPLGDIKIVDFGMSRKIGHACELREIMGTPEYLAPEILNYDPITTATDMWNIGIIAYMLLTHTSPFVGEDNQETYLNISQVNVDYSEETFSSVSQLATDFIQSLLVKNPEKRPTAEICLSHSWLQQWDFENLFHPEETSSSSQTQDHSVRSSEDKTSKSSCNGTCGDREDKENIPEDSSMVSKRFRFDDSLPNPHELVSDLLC
UniProt Q5T011: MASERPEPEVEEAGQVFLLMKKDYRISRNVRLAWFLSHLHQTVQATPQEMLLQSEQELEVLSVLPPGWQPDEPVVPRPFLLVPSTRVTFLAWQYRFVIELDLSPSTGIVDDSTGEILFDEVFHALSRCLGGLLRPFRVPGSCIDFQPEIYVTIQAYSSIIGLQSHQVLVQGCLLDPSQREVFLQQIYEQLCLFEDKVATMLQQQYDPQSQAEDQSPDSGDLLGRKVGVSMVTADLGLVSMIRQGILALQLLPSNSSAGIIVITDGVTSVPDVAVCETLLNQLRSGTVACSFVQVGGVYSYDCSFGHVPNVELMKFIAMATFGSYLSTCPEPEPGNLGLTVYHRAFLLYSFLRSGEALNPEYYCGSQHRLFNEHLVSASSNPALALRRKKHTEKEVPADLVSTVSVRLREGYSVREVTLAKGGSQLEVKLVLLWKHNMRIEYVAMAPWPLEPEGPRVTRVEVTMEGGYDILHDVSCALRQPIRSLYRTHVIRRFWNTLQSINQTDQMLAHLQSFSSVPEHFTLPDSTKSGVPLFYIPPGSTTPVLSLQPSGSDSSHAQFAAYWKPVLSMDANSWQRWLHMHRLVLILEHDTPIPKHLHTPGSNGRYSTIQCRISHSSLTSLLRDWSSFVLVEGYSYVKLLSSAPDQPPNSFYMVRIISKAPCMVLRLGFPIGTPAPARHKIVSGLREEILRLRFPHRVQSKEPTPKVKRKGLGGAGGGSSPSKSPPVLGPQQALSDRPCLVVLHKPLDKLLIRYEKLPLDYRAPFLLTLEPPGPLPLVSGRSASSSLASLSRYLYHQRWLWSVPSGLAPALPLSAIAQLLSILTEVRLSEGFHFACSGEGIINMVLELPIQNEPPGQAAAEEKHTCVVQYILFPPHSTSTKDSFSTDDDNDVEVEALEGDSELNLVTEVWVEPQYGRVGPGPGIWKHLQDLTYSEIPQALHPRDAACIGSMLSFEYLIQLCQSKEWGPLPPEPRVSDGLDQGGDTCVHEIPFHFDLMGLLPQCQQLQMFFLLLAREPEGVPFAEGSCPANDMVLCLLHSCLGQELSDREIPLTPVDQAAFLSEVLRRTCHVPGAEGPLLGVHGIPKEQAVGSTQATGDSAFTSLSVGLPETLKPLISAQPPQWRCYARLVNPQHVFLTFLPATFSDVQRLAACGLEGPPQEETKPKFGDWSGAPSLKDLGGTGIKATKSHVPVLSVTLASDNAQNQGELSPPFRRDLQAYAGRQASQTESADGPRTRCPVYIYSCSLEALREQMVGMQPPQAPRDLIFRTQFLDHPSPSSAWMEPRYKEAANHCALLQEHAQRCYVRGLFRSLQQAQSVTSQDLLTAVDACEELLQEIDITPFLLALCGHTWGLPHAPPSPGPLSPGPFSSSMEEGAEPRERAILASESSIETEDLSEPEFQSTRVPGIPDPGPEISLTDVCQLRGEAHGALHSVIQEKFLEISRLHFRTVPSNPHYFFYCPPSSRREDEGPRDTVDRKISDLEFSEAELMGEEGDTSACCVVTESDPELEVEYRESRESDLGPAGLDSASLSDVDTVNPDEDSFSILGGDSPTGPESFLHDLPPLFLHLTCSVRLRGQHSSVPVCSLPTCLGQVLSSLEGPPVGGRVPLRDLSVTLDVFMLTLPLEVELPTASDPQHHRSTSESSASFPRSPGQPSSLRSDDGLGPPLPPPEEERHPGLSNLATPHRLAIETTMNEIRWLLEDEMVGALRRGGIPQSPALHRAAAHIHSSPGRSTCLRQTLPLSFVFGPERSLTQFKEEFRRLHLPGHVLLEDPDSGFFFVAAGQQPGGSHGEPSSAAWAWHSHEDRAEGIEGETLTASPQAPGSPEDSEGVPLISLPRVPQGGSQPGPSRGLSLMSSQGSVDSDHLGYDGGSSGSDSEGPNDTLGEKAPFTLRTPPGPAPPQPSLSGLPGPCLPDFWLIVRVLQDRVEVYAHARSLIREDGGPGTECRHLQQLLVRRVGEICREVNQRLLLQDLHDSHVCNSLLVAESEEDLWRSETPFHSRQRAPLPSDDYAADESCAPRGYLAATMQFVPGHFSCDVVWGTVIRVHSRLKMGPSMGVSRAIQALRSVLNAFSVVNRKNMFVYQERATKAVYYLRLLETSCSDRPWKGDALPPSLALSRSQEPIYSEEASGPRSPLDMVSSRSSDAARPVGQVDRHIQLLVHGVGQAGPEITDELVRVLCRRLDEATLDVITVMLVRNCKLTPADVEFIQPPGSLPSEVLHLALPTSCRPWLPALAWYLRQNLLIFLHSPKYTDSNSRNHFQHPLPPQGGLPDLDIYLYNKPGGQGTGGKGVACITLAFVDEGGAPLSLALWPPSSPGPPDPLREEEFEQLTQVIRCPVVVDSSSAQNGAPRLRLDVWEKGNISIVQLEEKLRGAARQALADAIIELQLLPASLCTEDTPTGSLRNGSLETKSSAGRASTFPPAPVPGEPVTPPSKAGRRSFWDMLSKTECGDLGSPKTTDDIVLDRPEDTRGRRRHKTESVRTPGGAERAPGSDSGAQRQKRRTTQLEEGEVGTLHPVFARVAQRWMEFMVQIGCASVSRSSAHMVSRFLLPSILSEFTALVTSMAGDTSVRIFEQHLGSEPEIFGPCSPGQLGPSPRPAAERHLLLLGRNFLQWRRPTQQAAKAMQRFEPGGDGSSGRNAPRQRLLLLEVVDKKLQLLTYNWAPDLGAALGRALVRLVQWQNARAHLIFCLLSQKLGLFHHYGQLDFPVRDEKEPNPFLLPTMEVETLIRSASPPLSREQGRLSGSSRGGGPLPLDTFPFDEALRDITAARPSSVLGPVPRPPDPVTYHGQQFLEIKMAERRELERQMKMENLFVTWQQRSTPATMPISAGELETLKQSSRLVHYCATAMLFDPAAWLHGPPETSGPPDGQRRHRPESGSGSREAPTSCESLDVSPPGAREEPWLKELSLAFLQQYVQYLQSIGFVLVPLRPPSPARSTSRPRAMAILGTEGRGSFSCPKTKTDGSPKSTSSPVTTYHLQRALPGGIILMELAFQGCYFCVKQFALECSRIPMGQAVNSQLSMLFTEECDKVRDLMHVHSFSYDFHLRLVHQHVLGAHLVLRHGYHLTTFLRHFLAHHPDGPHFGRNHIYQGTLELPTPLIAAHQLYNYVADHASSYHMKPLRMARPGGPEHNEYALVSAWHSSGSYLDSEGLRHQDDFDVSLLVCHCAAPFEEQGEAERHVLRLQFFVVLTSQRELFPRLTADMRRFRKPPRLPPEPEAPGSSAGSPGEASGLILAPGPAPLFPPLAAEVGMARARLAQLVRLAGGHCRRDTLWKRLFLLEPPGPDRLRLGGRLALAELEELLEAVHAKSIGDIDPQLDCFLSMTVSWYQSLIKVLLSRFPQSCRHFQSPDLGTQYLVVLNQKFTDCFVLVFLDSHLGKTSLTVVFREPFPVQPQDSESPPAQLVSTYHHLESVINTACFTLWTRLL
UniProt Q6UWL2: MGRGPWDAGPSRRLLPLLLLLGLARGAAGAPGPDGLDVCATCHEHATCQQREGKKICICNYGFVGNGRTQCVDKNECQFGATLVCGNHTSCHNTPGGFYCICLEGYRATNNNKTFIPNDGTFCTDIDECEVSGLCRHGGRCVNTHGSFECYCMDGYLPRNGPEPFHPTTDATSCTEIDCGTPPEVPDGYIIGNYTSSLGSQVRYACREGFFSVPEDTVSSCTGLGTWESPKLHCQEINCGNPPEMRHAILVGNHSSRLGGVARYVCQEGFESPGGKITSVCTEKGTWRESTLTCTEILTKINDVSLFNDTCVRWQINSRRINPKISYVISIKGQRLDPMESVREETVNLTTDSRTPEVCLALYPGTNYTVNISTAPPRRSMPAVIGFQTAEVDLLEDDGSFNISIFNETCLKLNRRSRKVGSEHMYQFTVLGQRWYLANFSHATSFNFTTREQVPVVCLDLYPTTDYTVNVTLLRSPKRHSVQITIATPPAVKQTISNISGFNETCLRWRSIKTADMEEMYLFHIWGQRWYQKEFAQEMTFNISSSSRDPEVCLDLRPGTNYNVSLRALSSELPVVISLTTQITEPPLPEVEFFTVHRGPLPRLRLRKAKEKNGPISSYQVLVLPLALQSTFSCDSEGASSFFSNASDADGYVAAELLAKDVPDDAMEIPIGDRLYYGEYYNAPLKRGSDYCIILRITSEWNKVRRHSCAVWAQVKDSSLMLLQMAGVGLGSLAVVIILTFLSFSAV

This is one part of the list.

Experiment in all cases: log2 fold change, soluble protein after heating vs DMSO (PISA); higher = thermal stabilisation; K562 lysate, 10 uM; active = over 0.2 and 3.5 SD of the protein, either way, in both replicates (recomputed)
Compound in assay [1]: c1ccc([C@@H]2C[C@H]2NC2CCNCC2)cc1
A digest of the protocol: (§1)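 The values are log-two fold changes in thermal stability compared with solvent controls and come from duplicates. They were obtained by TMTpro 16plex LC-MS/MS, with channel sums equalised, on the supernatant after 21,000xg for 90 min. That supernatant came from crude K562 extract at 1 mg/mL protein treated with 10 μM compound for 30 min, heated for 3 min across 48°C-58°C, pooled and brought to 0.5% NP-40 at 4°C.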

Compound in assay [2]: Cc1sc2c(c1C)C(c1ccc(Cl)cc1)=N[C@@H](CC(=O)OC(C)(C)C)c1nnc(C)n1-2
A digest of the protocol:
as §1

Compound in assay [3]: C1=CC=C(C=C1)[C@H](COC2=CC3=C(C=C2)NC(=O)N3)NC(=O)C4=CC=CN(C4=O)CC5=CC(=C(C=C5)F)F
In short, it runs like this:
as §1

Compound in assay [4]: CC1=C(SC2=C1C(=N[C@H](C3=NN=C(N32)C)CC(=O)N)C4=CC=C(C=C4)Cl)C
In short, it runs like this: as §1

Compound in assay [5]: CC1=C2C(=CC=C1)N=C(N(C2=O)C3=CC=CC=C3C)CN4C=NC5=C(N=CN=C54)N
A digest of the protocol:
as §1

Take SUSD3 (UniProt Q96L08): the log2 fold change in assay [1] is inactive: -0.11.
As to STK19 (UniProt P49842), the log2 fold change in assay [2] was inactive: -0.338.
Consider STK26 isoform 3 (UniProt Q9P289), for which the log2 fold change in assay [2] is inactive: 0.166.
In the case of TAF3 (UniProt Q5VWG9), in assay [1], the log2 fold change is inactive: 0.595.
Take STRN3 isoform 2 (UniProt Q13033): the log2 fold change in assay [3] was inactive: 0.124; in assay [4], inactive: -0.106; in assay [2], inactive: -0.142; in assay [1], inactive: 0.112.
On the same counts, the results for STK35 (UniProt Q8TDR2) are inactive: 0.045, inactive: 0.044, inactive: -0.081 and inactive: -0.121.
Turning to STS (UniProt P08842), the log2 fold change in assay [3] is inactive: 0.353; in assay [4] it was inactive: -0.324; in assay [5], inactive: 0.078; in assay [1], inactive: 0.016.
For TACC3 (UniProt C9JWI7), the log2 fold change in assay [5] was inactive: 0.048.
Take TAB3 (UniProt Q8N5C8): the log2 fold change is inactive: 0.247 in assay [3], inactive: -0.194 in assay [4], inactive: 0.049 in assay [2] and inactive: 0.064 in assay [1].
In the case of STXBP6 (UniProt Q8NFX7), the results for the log2 fold change in assay [3], in assay [4] and in assay [1] were inactive: 0.103, inactive: -0.095 and inactive: 0.06, respectively.
On the same counts, the results for SYNM (UniProt O15061) are inactive: 0.078, inactive: -0.019 and inactive: -0.084.
For the target STK10 (UniProt O94804), the values for the log2 fold change in assay [3], in assay [4] and in assay [2] were inactive: 0.022, inactive: 0 and inactive: -0.126, respectively.
Regarding TADA2B (UniProt Q86TJ2), the log2 fold change in assay [5] is inactive: 0.075; in assay [2], inactive: -0.017.
As to STIM2 isoform 2 (UniProt Q9P246), the log2 fold change is inactive: -0.039 in assay [2] and inactive: 0.014 in assay [1].
In the case of SUCO isoform 2 (UniProt Q9UBS9), the log2 fold change in assay [5] was inactive: 0.015.
Regarding SVBP (UniProt Q8N300), the log2 fold change in assay [1] is inactive: -0.001.
On to SWSAP1 (UniProt Q6NVH7), for which the log2 fold change in assay [2] was inactive: -0.12.
In the case of STN1 (UniProt Q9H668), the log2 fold change in assay [3] is inactive: -0.125; in assay [4] it was inactive: 0.073; in assay [5] it was inactive: -0.115; in assay [1] it was inactive: -0.049.
In the case of STYX (UniProt Q8WUJ0), the log2 fold change in assay [3] is inactive: -0.03; in assay [4], inactive: 0.06; in assay [2] it was inactive: -0.011; in assay [1] it was inactive: -0.01.
On to STK17A (UniProt Q9UEE5), for which the log2 fold change in assay [1] was inactive: 0.148.
On to SUSD6 (UniProt Q92537), for which the log2 fold change in assay [1] was inactive: 0.084.
For SUFU (UniProt Q9UMX1), the log2 fold change in assay [5] is inactive: 0.049; in assay [1], inactive: 0.047.
Consider STK16 (UniProt O75716), for which the results for the log2 fold change in assay [5] and in assay [2] were inactive: -0.491 and inactive: -0.12, respectively.
In the case of STRN3 (UniProt H0YJT2), the values for the log2 fold change in assay [2] and in assay [1] were inactive: -0.018 and inactive: -0.069, respectively.
On to TAF1 isoform 4 (UniProt P21675), for which the log2 fold change in assay [5] is inactive: 0.113; in assay [2], inactive: 0.057; in assay [1], inactive: -0.011.
Consider SYNCRIP isoform 3 (UniProt O60506), for which the log2 fold change in assay [3] is inactive: 0.024; in assay [4], inactive: 0.011; in assay [5], inactive: 0.048; in assay [1] it was inactive: -0.013.
For the target TAF11 (UniProt Q15544), the results for the log2 fold change in assay [5], in assay [2] and in assay [1] were inactive: 0, inactive: -0.16 and inactive: -0.073, respectively.
With STK17B (UniProt O94768), the log2 fold change in assay [2] is inactive: -0.029.
As to SYNGR1 isoform 2 (UniProt O43759), the log2 fold change in assay [3] is inactive: 0.083; in assay [4], inactive: 0.034; in assay [1], inactive: -0.042.
As to STK26 (UniProt Q9P289), the log2 fold change in assay [3] is inactive: -0.015; in assay [4], inactive: -0.015; in assay [5] it was inactive: 0.008; in assay [2], inactive: -0.015; in assay [1] it was inactive: 0.02.
In the case of SUPT3H (UniProt O75486), the log2 fold change in assay [1] is inactive: 0.054.
SULT1A3 isoform 3 (UniProt P0DMM9): the log2 fold change is inactive: -0.08 in assay [3], inactive: -0.083 in assay [4], inactive: 0.045 in assay [2] and inactive: 0.05 in assay [1].
As for SZT2 (UniProt Q5T011), the log2 fold change in assay [3] was inactive: -0.285; in assay [4] it was inactive: -0.066; in assay [2], inactive: -0.148; in assay [1] it was inactive: 0.105.
SUSD1 isoform 2 (UniProt Q6UWL2): the log2 fold change in assay [2] was inactive: -0.083; in assay [1], inactive: -0.002.
With STK38L (UniProt Q9Y2H1), the log2 fold change in assay [2] is inactive: -0.031.
